In all, about 360,000 compounds went through this assay and about 7,500 (2.1%) were called active. Inconclusive results, whose numbers are uncertain, are shown with a selection of clear calls. The call rests on the fitted dose curve; in most records, active means well fitted inhibition curve with a large enough effect; inconclusive means small, poorly fitted or top-dose-only effect, or effect the other way; inactive means flat fitted curve, though single readings scatter. A potency beside an inconclusive call is a rough fit, not a confirmed value.
assay: Nrf2 qHTS screen for inhibitors; conditions: A549 ARE-Fluc reporter, luciferase luminescence, 18-24 h; activity change, negative = inhibition: at 46 µM (top of the series); further: nearly all actives have a fitted effect of over 60% in size
In short: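 Two sequential reads on A549 ARE_Fluc cells exposed to compound for 18-24 h: a CellTiter-Fluor fluorescence read for viability, then a luciferase luminescence read for Nrf2/ARE activity.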
On the % scale 0 is the no-effect control and ±100 the full control effect; potency means the concentration at half of the fitted maximal effect.

SMILES	Potency	activity change, negative = inhibition
Cc1ccc(-c2cc(C(=O)N3CCN(c4ccc(O)cc4)CC3)c3ccccc3n2)cc1	inconclusive: 16.4 µM [falling, single point]	–
COc1ccccc1C(=O)NC(=O)COC(=O)CNC(=O)c1ccc(Cl)cc1Cl	inconclusive: 2.31 µM [activator, single point]	–
O=C(O)c1cccc2c1C(=O)c1ccc(-c3ccc(Cl)c(C(F)(F)F)c3)cc1S2(=O)=O	inconclusive: 29.1 µM [activator, single point]	–
O=C(NCCN1CCOCC1)c1sc2cc(Cl)ccc2c1Cl	inconclusive: 25.9 µM [activator, single point]	–
Cc1ccc(S(=O)(=O)Nc2ccccc2CNc2ccc(Br)cn2)cc1	inconclusive: 25.9 µM [falling, single point]	–
COc1ccc2c(/C=C/c3cc[n+](C)cc3)c[nH]c2c1	active: 1.3 µM	–
Cc1ccc(Oc2nc3c(c(=O)n(Cc4ccccc4F)c(=O)n3C)n2C)cc1	–	inactive: -7.71%
O=C(Nc1ccc([N+](=O)[O-])cc1)C(=O)Nc1cccc(C(=O)O)c1	inconclusive: 18.4 µM [falling, single point]	–
COc1ccccc1/C=C\C=N\n1c(C2CCCCC2)n[nH]c1=S	inconclusive: 23.1 µM [falling, single point]	–
COc1ccc(-c2nc(C#N)c(NC(C)c3ccccc3)o2)cc1OC (stereo not drawn)	inconclusive: 23.1 µM [falling, single point]	–
NC(=O)C1CCN(C(=O)C(=O)c2cn(CC(=O)N3CCCC3)c3ccccc23)CC1	inconclusive: 0.231 µM [falling, full curve, poor fit]	–
CN(CCc1ccccc1)C(=O)c1ccc(NC(=O)Cc2cccc(NC(=O)C3CCN(C(=O)C4CC4)CC3)c2)cc1	inconclusive: 18.4 µM [falling, single point]	–
O=C(NCc1ccccn1)Nc1ccccc1Cl	inconclusive: 0.291 µM [activator, full curve, poor fit]	–
COc1ccc2c(c1)CCc1sc(NC(=O)c3ccc(C)cc3)nc1-2	inconclusive: 14.6 µM [falling, partial curve, poor fit]	–
COc1ccc(-c2ccc3c(N)c(C(=O)NCc4ccc(C)cc4)sc3n2)cc1	–	inactive: -6.09%
COc1ccc(CC(=O)Nc2ccc(N3CCCC3)c(C)c2)cc1	inconclusive: 16.4 µM [activator, single point]	–
COc1ccc(C(=O)Nc2ccc(-c3ccc(NC(=O)c4ccc(OC)cc4)c(OC)c3)cc2OC)cc1	inconclusive: 7.31 µM [falling, full curve, poor fit]	–
Nc1c(C(=O)Nc2nccs2)sc2nc(-c3cccs3)cc(C(F)(F)F)c12	–	inactive: -10.4%
CCOC(=O)C1=C(CC)Nc2ccccc2N/C1=N\S(=O)(=O)c1ccc2ccccc2c1	inconclusive: 10.3 µM [falling, partial curve, poor fit]	–
COc1ccccc1[C@H]1C(c2cccc(Cl)c2)=NN(c2ccccc2)[C@@H]1CO	inconclusive: 6.51 µM [activator, single point]	–
CN(C)C=NC(=O)c1ccc(N2CCN(c3ncc(C(F)(F)F)cc3Cl)CC2)cc1	inconclusive: 20.6 µM [falling, partial curve, poor fit]	–

Reformatted with bars between the fields: 19 of the compounds above
SMILES | Potency | activity change, negative = inhibition
Cc1ccc(-c2cc(C(=O)N3CCN(c4ccc(O)cc4)CC3)c3ccccc3n2)cc1 | inconclusive: 16.4 µM [falling, single point] | –
COc1ccccc1C(=O)NC(=O)COC(=O)CNC(=O)c1ccc(Cl)cc1Cl | inconclusive: 2.31 µM [activator, single point] | –
O=C(O)c1cccc2c1C(=O)c1ccc(-c3ccc(Cl)c(C(F)(F)F)c3)cc1S2(=O)=O | inconclusive: 29.1 µM [activator, single point] | –
O=C(NCCN1CCOCC1)c1sc2cc(Cl)ccc2c1Cl | inconclusive: 25.9 µM [activator, single point] | –
Cc1ccc(S(=O)(=O)Nc2ccccc2CNc2ccc(Br)cn2)cc1 | inconclusive: 25.9 µM [falling, single point] | –
COc1ccc2c(/C=C/c3cc[n+](C)cc3)c[nH]c2c1 | active: 1.3 µM | –
Cc1ccc(Oc2nc3c(c(=O)n(Cc4ccccc4F)c(=O)n3C)n2C)cc1 | – | inactive: -7.71%
O=C(Nc1ccc([N+](=O)[O-])cc1)C(=O)Nc1cccc(C(=O)O)c1 | inconclusive: 18.4 µM [falling, single point] | –
COc1ccccc1/C=C\C=N\n1c(C2CCCCC2)n[nH]c1=S | inconclusive: 23.1 µM [falling, single point] | –
COc1ccc(-c2nc(C#N)c(NC(C)c3ccccc3)o2)cc1OC (stereo not drawn) | inconclusive: 23.1 µM [falling, single point] | –
NC(=O)C1CCN(C(=O)C(=O)c2cn(CC(=O)N3CCCC3)c3ccccc23)CC1 | inconclusive: 0.231 µM [falling, full curve, poor fit] | –
CN(CCc1ccccc1)C(=O)c1ccc(NC(=O)Cc2cccc(NC(=O)C3CCN(C(=O)C4CC4)CC3)c2)cc1 | inconclusive: 18.4 µM [falling, single point] | –
O=C(NCc1ccccn1)Nc1ccccc1Cl | inconclusive: 0.291 µM [activator, full curve, poor fit] | –
COc1ccc2c(c1)CCc1sc(NC(=O)c3ccc(C)cc3)nc1-2 | inconclusive: 14.6 µM [falling, partial curve, poor fit] | –
COc1ccc(-c2ccc3c(N)c(C(=O)NCc4ccc(C)cc4)sc3n2)cc1 | – | inactive: -6.09%
COc1ccc(C(=O)Nc2ccc(-c3ccc(NC(=O)c4ccc(OC)cc4)c(OC)c3)cc2OC)cc1 | inconclusive: 7.31 µM [falling, full curve, poor fit] | –
Nc1c(C(=O)Nc2nccs2)sc2nc(-c3cccs3)cc(C(F)(F)F)c12 | – | inactive: -10.4%
CCOC(=O)C1=C(CC)Nc2ccccc2N/C1=N\S(=O)(=O)c1ccc2ccccc2c1 | inconclusive: 10.3 µM [falling, partial curve, poor fit] | –
CN(C)C=NC(=O)c1ccc(N2CCN(c3ncc(C(F)(F)F)cc3Cl)CC2)cc1 | inconclusive: 20.6 µM [falling, partial curve, poor fit] | –

(further entries)

SMILES	Potency	activity change, negative = inhibition
c1ccc2c(NCCc3c[nH]c4ccccc34)c3ccccc3nc2c1	inconclusive: 29.1 µM [falling, single point]	–
CC(C)(C)OC(=O)N1CCC(c2c(C(=O)NCCN3CCOCC3)cnn2-c2ccc(F)cc2)CC1	inconclusive: 18.4 µM [activator, partial curve, poor fit]	–
Cc1cc(C)cc(NC(=O)CSc2nnc(-c3ccc(S(=O)(=O)N4CCCC4)cc3)o2)c1	inconclusive: 0.366 µM [activator, full curve]	–
O=C(/C=C/c1cccs1)Nc1sc2c(c1C(=O)O)CCCC2	inconclusive: 4.61 µM [falling, single point]	–
O=C(N/N=C(\Cc1ncc[nH]1)c1ccccc1)c1cccnc1	active: 2.31 µM	–
Cc1ccc(SCC(=O)NCc2ccco2)cc1	inconclusive: 3.26 µM [activator, single point]	–
Cc1ccc(Cl)cc1NC(=O)CCc1c(C)nc2c3cccnc3nn2c1C	inconclusive: 9.2 µM [falling, partial curve, poor fit]	–
Cc1ccc(-n2c(SCC(=O)OC(C)C)nnc2-c2ccncc2)cc1	inconclusive: 18.4 µM [activator, single point]	–
COc1cc(=O)[nH]c(SC(C)C(=O)Nc2ccc3ccccc3c2)n1 (stereo not drawn)	inconclusive: 32.6 µM [activator, partial curve, poor fit]	–
C=CCN1C(=O)c2ccc(C(=O)N(C)CC(=O)Nc3ccc(Br)cc3C)cc2C1=O	inconclusive: 2.91 µM [falling, partial curve, poor fit]	–
O=C(c1cccc(Cl)c1)N1c2ncnn2C2(CCCCC2)[C@@H]2CCCC[C@@H]21	–	inactive: -15.7%
O=C(CN1CCN(S(=O)(=O)c2ccccc2)CC1)Nc1ccc(Cl)c([N+](=O)[O-])c1	inconclusive: 23.1 µM [falling, partial curve, poor fit]	–
CC(Oc1ccc2c(c1)oc(=O)c1ccccc12)C(=O)NCCN1CCOCC1 (stereo not drawn)	inconclusive: 29.1 µM [falling, single point]	–
CCOC(=O)C1CCCN(C(=O)COc2ccc(N(C)S(=O)(=O)c3ccc(F)cc3)cc2)C1 (stereo not drawn)	inconclusive: 18.4 µM [activator, single point]	–
Fc1ccc(N=C2NN=C(c3cc(F)ccc3F)CS2)cc1	inconclusive: 25.9 µM [falling, single point]	–
O=C(Nc1nc2n(n1)C(c1ccccc1)C=C(c1ccc(Cl)cc1)N2)c1ccco1 (stereo not drawn)	inconclusive: 2.06 µM [falling, full curve]	–
COc1cccc(Cn2c(SCc3ccc(C(=O)N4CCCCC4)cc3)nc3ccncc32)c1	active: 18.4 µM	–
CC1(C)CC(=O)C=C(Nc2ccc3c(c2)OCCO3)C1	inconclusive: 23.1 µM [activator, single point]	–
Cn1cnc([N+](=O)[O-])c1S(=O)(=O)Oc1ccc(Cl)cc1	–	inactive: -10.9%
Cc1cc(Cl)ccc1NC(=O)CN1C(=O)COc2ccc(S(=O)(=O)Nc3ccccc3)cc21	–	inactive: 15.5%
COc1ccc(NS(=O)(=O)c2ccc(NC(=O)c3ccccn3)cc2)cc1	inconclusive: 20.6 µM [falling, single point]	–

SMILES	Potency	activity change, negative = inhibition
Cc1ccc(S(=O)(=O)N2[C@@H](c3ccc(Br)cc3)C(C(=O)O)=CC[C@H]2c2ccc(Cl)c(Cl)c2)cc1	active: 25.9 µM	–
CCCCCCCCC/C(=N\O)c1ccccn1	inconclusive: 5.17 µM [activator, single point]	–
Cc1cc(C)c(C)c(S(=O)(=O)N2CCN(C(=O)c3ccccc3OCc3c(C)noc3C)CC2)c1C	active: 18.4 µM	–
CC1CCCC(C)N1C(=O)COC(=O)/C=C/c1ccco1 (stereo not drawn)	inconclusive: 20.6 µM [activator, partial curve]	–
Cc1ccc(OCCC(=O)OCC(=O)c2c(N)n(C)c(=O)n(C)c2=O)cc1	inconclusive: 32.6 µM [activator, partial curve, poor fit]	–
O=C(CN(C(=O)c1csnn1)c1ccc(F)c(Cl)c1)NC1CCCCC1	inconclusive: 7.31 µM [falling, partial curve, poor fit]	–
O=C(Nc1ncccc1O)c1cc2ccccc2o1	inconclusive: 16.4 µM [activator, partial curve]	–
CCOC(=O)C1CCCN(C(=O)c2ccc3c(c2)sc2nc(-c4ccc(C)cc4C)cn23)C1 (stereo not drawn)	–	inactive: 6.27%
COc1ccc(N(CCC#N)S(=O)(=O)c2ccc(Cl)cc2)cc1	inconclusive: 20.6 µM [falling, partial curve, poor fit]	–
CCCCNC(=O)Cc1c(OC)ccc2cc(Br)ccc12	inconclusive: 18.4 µM [falling, single point]	–
COc1cccc(OCc2nnc(SCc3cc(=O)[nH]c4ccccc34)o2)c1	inconclusive: 29.1 µM [falling, single point]	–
COc1ccc(C)cc1NC(=O)C(Cc1ccccc1)NS(=O)(=O)c1ccc(Br)s1 (stereo not drawn)	inconclusive: 8.2 µM [falling, partial curve, poor fit]	–
CCCN1CCC(=O)N([C@H](CSc2ccc(OC)cc2)CC(C)C)CC1	inconclusive: 14.6 µM [activator, partial curve]	–
CCN(CC)S(=O)(=O)c1ccc2c(c1)N(CC(=O)Nc1cccnc1Cl)C(=O)CO2	–	inactive: -13.5%
Cc1cc(NCc2ccccc2)nc2ccccc12	inconclusive: 6.51 µM [activator, single point]	–
CN(CC(=O)Nc1cccc(F)c1)C(=O)c1ccc(C2SCCS2)cc1	inconclusive: 25.9 µM [falling, partial curve, poor fit]	–
Cc1cc(NC(=O)CSc2nc3c(sc4ccccc43)c(=O)n2CCc2ccccc2)n[nH]1	–	inactive: -27.3%
COc1ccccc1C1=NOC(CN2C(=O)c3ccccc3S2(=O)=O)C1 (stereo not drawn)	inconclusive: 9.2 µM [activator, partial curve]	–
O=S(=O)(NCCOc1cccc2cccnc12)c1ccc(F)cc1	inconclusive: 32.6 µM [falling, single point]	–
O=C(COC(=O)c1cc(S(=O)(=O)N2CCOCC2)ccc1F)Nc1cc([N+](=O)[O-])ccc1F	–	inactive: 7.59%
CCn1c(CNC(=O)Cc2ccc(OC)cc2)nnc1SCC(=O)Nc1nccs1	inconclusive: 5.8 µM [falling, partial curve, poor fit]	–
